Data on 42 sequences can be found in PMC7819943, “Rice protein-binding microarrays: a tool to detect cis-acting elements near promoter regions in rice”.

Amino acid sequences for entries named in this document (tags omitted).
UniProt Q0JBA9, entry or part of it: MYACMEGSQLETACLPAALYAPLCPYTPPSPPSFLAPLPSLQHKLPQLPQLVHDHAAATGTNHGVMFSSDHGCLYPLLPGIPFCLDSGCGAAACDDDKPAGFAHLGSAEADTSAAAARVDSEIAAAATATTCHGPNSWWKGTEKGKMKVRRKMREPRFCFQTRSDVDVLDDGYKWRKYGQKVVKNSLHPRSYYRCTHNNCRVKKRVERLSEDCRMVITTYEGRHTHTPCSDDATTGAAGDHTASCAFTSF

Some of the results follow.

The target of this test is OsWRKY34 (Oryza sativa, UniProt Q0JBA9 1-250). Kind of test: protein-binding microarray (RPBM); PBS, 2% BSA, 51.3 ng/ul salmon testes DNA, 50 uM zinc acetate, 200 nM TF, 25 C, 1 h; high values mean tight binding. As to conditions: protein: recombinant; tags: N-terminal polyhistidine and DsRed monomer fusion (pET32a); label: CyDye5-dUTP incorporated in the synthesized complementary strand; 3' TTTTT single-stranded linker to array surface; dsDNA, one strand shown. An outline of the steps: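 Transcription factors were made in E. coli BL21-CodonPlus as N-terminal fusions to a polyhistidine tag and DsRed, then purified on Ni–NTA. After primer extension with Cy5-dUTP and blocking with 2% BSA, a custom Agilent array was exposed for 1 h at 25 °C to 200 nM protein in PBS, 2% BSA, salmon testes DNA and 50 µM zinc acetate. Washed arrays were scanned on an Axon 4000B, and the binding signal is per-feature fluorescence intensity in arbitrary units.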
On to “GTGGTACTTTCCCAATTGTTCTGCTATCCCTGTTTTATGGCGGAGTCACCTAGTGCAG”, for which the binding signal was 9400 fluorescence intensity (a.u.).
On to “TCGGCTTCACTTGGAACAAATCGTCATCATCCTCGCCGCCCGGAGTCACCTAGTGCAG”, for which the binding signal is 8370 fluorescence intensity (a.u.).
As for “GGGCAGCACACATTGATCATACCACACACTGTTCCCTGCACGGAGTCACCTAGTGCAG”, the binding signal was 12200 fluorescence intensity (a.u.).
Regarding “AACTTTTACTACCTTTTAGTACTATATCATTAGTTTTCTTCGGAGTCACCTAGTGCAG”, the binding signal is 11300 fluorescence intensity (a.u.).
As for “TCCTTGGGCGCCATAATGATCTGTTAACCACACCTTTTCTCGGAGTCACCTAGTGCAG”, the binding signal was 8480 fluorescence intensity (a.u.).
With “GTGGTTGGTTTCTTGTTTAGCTGGATTTGGTGCAAAAGCGCGGAGTCACCTAGTGCAG” the figure was 12700 fluorescence intensity (a.u.).
With “CGTATCTCAATGACATATAAGACCCACATGAGTCAATAACCGGAGTCACCTAGTGCAG” the figure was 8590 fluorescence intensity (a.u.).
As to “GGCGGTTGTGGAGGCGCTGGGGCCGGTGGTCGGGGCGGCACGGAGTCACCTAGTGCAG”, the binding signal was 11400 fluorescence intensity (a.u.).
With “TCGGTCAACTCACAAATTTGGTCTCTCTTGACATTTCCTTCGGAGTCACCTAGTGCAG” the figure was 11800 fluorescence intensity (a.u.).
With “TCTCAGCATACCCCTTTTCACCTTTTTGCCATAATTAAAACGGAGTCACCTAGTGCAG” the figure was 9410 fluorescence intensity (a.u.); with “TCCCACGCGCCTTTTCTTCCCACGTGCATCTGTCAGTGACCGGAGTCACCTAGTGCAG”, 9480 fluorescence intensity (a.u.).
With “AGGGTTTGTTTGTTTATTTGTTTGTTTGATCGGTGTGGGGCGGAGTCACCTAGTGCAG”, the binding signal is 13300 fluorescence intensity (a.u.).
With “TTTTATTATGTCGATTTTTTTTCCTTACGATCCTCTTTATCGGAGTCACCTAGTGCAG” the figure was 9760 fluorescence intensity (a.u.); with “ATCTTTTATTTTTTACTGAAGTTTCTGTTTTGTTTTCAGTCGGAGTCACCTAGTGCAG”, 13200 fluorescence intensity (a.u.).
With “CGGATGGCTGTCCTGCTCTTGCGCTCATGCATGTCATCTCCGGAGTCACCTAGTGCAG” the figure was 10600 fluorescence intensity (a.u.).
With “CGATTGCCTCAACCACCCGGTCACTGTGCAGGCGACCTGTCGGAGTCACCTAGTGCAG” the figure was 9060 fluorescence intensity (a.u.); with “ACCGTTCACTTTTTCCACCTACCTCCACTTCTCAACCAATCGGAGTCACCTAGTGCAG”, 13500 fluorescence intensity (a.u.); with “ATCCTGGTCATCCAAAAGCCCAAACAACACTTCTACTTATCGGAGTCACCTAGTGCAG”, 8380 fluorescence intensity (a.u.).
With “TATTTATACAGCGCCGTATCCTTCAGTCTGCACACAAGGACGGAGTCACCTAGTGCAG”, the binding signal is 9820 fluorescence intensity (a.u.).
“TGGTGGTTTCGAGATTTCTCATTGTCTGTTATCTGAAACCCGGAGTCACCTAGTGCAG”: the binding signal is 8840 fluorescence intensity (a.u.).
With “TTCGTCTTCCTCTAGCCTCACTCAGCATCTCCGTTGCACCCGGAGTCACCTAGTGCAG” the figure was 9960 fluorescence intensity (a.u.).
With “TGGCTGCACCTTCGTCTCCATCGATCGATCGATCCACCATCGGAGTCACCTAGTGCAG” the figure was 8030 fluorescence intensity (a.u.); with “GCTATTGACTGTATCTAGTACTATTTCAAATTGTCAACGACGGAGTCACCTAGTGCAG”, 9420 fluorescence intensity (a.u.).
As for “ACTTGTATGATCAATTTTGTTCTTTTGTAGGATCAATGTTCGGAGTCACCTAGTGCAG”, the binding signal was 8580 fluorescence intensity (a.u.).
The same measure for “ATGAACTTACCTTGCTGATTTTAGACATTTTGTGATTTAACGGAGTCACCTAGTGCAG”: 8360 fluorescence intensity (a.u.); for “GGACTTGACTGTTTCAGATATAAGCACTCACTCTTGTTTTCGGAGTCACCTAGTGCAG”: 9490 fluorescence intensity (a.u.); for “TCCCACTCCCACTGGCCTACCGTTTCCAATCATCCACGCCCGGAGTCACCTAGTGCAG”: 8480 fluorescence intensity (a.u.).
The same measure for “TGATTGGATTTATAGGTGAATTACAGGTGTTGTCATTTTACGGAGTCACCTAGTGCAG”: 8310 fluorescence intensity (a.u.); for “CTCCGTTTTAGGTTATAAGATATTTTTGACTTTGGTCAAACGGAGTCACCTAGTGCAG”: 8470 fluorescence intensity (a.u.); for “TTCATGATCATGCTTTGCCTTGACCAGCAAACTCTCAGCTCGGAGTCACCTAGTGCAG”: 9240 fluorescence intensity (a.u.).
In the case of “CTGTCCCTCTGAATATTTGTTTTGGTTGTTCCTTGCTGTACGGAGTCACCTAGTGCAG”, the binding signal is 11500 fluorescence intensity (a.u.).
With “ATCTACTTATGTCACCCACTCTTAGCCAATATCATTCGCTCGGAGTCACCTAGTGCAG” the figure was 8030 fluorescence intensity (a.u.); with “TCATGGGTGGGGCAAGCTCTTCTATTCTGGTTCATGGTTTCGGAGTCACCTAGTGCAG”, 15700 fluorescence intensity (a.u.); with “GTTTCGGTTTGAATGAGTTTTGATTTTGATATTGGAAACTCGGAGTCACCTAGTGCAG”, 8220 fluorescence intensity (a.u.).
The same measure for “GACATGATACCATTCTCGACCGTTTTCATCTCGTAGTTGCCGGAGTCACCTAGTGCAG”: 11000 fluorescence intensity (a.u.).
The same measure for “ACCTCCCTTGCTCTCTTCTTGATTCATCTTGCCCTCAAAGCGGAGTCACCTAGTGCAG”: 8870 fluorescence intensity (a.u.); for “GTACTGTAGCTCTCTGACTTTACACATGTAAATCCTCTGACGGAGTCACCTAGTGCAG”: 8040 fluorescence intensity (a.u.); for “AATCCATCCGCTTTTGCCATACATCCTTCGTCCAAGATGCCGGAGTCACCTAGTGCAG”: 9430 fluorescence intensity (a.u.).
For the sequence “CTTCCCTTGAGGCTACACGTCTACATTGGCACTCGTTTTCCGGAGTCACCTAGTGCAG”, the binding signal was 8060 fluorescence intensity (a.u.).
With “GGTGGTTGGTCTTGTCATTGCTCGTGCATGTCAGCACAGTCGGAGTCACCTAGTGCAG” the figure was 11100 fluorescence intensity (a.u.); with “TTAGATGTGGCCAGTTTTGATTTCTAGCTTATAGGATCGTCGGAGTCACCTAGTGCAG”, 9000 fluorescence intensity (a.u.); with “GGGGTGATTAGGCTTCTACTGCAATTCAGTACAAGTAAATCGGAGTCACCTAGTGCAG”, 8310 fluorescence intensity (a.u.).
